In doi:10.1101/2023.12.25.573330:
Results are given in words; binding and its absence hold for the method and conditions named. Some entries that bind do so weakly or less than the wild type.

Biological target: T1, TMEM41B (human), Q5BJD5
T1 chain: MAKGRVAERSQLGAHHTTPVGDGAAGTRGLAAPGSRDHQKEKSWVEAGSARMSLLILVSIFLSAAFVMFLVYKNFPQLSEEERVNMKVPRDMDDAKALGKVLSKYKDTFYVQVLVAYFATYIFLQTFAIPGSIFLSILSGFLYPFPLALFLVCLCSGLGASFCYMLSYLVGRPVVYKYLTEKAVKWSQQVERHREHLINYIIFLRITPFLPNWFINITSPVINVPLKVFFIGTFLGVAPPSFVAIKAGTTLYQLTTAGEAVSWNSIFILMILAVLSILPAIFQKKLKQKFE
Assay: native gel or EMSA
Settings: remark: other sources report otherwise

binding: binds
B1: TMEM41B, Q5BJD5 1-291 (protein)
chain: MAKGRVAERSQLGAHHTTPVGDGAAGTRGLAAPGSRDHQKEKSWVEAGSARMSLLILVSIFLSAAFVMFLVYKNFPQLSEEERVNMKVPRDMDDAKALGKVLSKYKDTFYVQVLVAYFATYIFLQTFAIPGSIFLSILSGFLYPFPLALFLVCLCSGLGASFCYMLSYLVGRPVVYKYLTEKAVKWSQQVERHREHLINYIIFLRITPFLPNWFINITSPVINVPLKVFFIGTFLGVAPPSFVAIKAGTTLYQLTTAGEAVSWNSIFILMILAVLSILPAIFQKKLKQKFE
